Assay results: patent publication US9487515B2, “Compounds modulating c-fms and/or c-kit activity and uses therefor” (Plexxikon Inc., priority 2006, dated 2016)
Some entries share one result that the patent states for a list of compounds.

Biological target: Fms (UniProt P07333)
Assay: Fms assays of Examples 40 or 41 (AlphaScreen kinase assays at 10 and 100 μM ATP, 33P-ATP filter assay, RAW264.7 pFMS and M-NFS-60 M-CSF-stimulated proliferation)
Conditions: in at least one of the Fms assays described in Examples 40 or 41

IC50, < 1000 nM:
COc1ccccc1CNc1ccc(Cc2c[nH]c3ncccc23)cn1 [P-0336, (2-Methoxy-benzyl)-[5-(1H-pyrrolo[2,3-b]pyridin-3-ylmethyl)-pyridin-2-yl]-amine]
COc1ccccc1CNc1ccc(Cc2c[nH]c3ncc(C#N)cc23)cn1 [P-0337, 3-[6-(2-Methoxy-benzylamino)-pyridin-3-ylmethyl]-1H-pyrrolo[2,3-b]pyridine-5-carbonitrile]
FC(F)Oc1ccccc1CNc1ccc(Cc2c[nH]c3ncc(Cl)cc23)cn1 [P-0338, [5-(5-Chloro-1H-pyrrolo[2,3-b]pyridin-3-ylmethyl)-pyridin-2-yl]-(2-difluoromethoxy-benzyl)-amine]
N#Cc1cnc2[nH]cc(Cc3ccc(NCc4ccccc4OC(F)F)nc3)c2c1 [P-0339, 3-[6-(2-Difluoromethoxy-benzylamino)-pyridin-3-ylmethyl]-1H-pyrrolo[2,3-b]pyridine-5-carbonitrile]
Fc1cccc(F)c1CNc1ccc(Cc2c[nH]c3ncccc23)cn1 [P-0340, (2,6-Difluoro-benzyl)-[5-(1H-pyrrolo[2,3-b]pyridin-3-ylmethyl)-pyridin-2-yl]-amine]
Cc1cnc2[nH]cc(Cc3ccc(NCc4c(F)cccc4F)nc3)c2c1 [P-0341, (2,6-Difluoro-benzyl)-[5-(5-methyl-1H-pyrrolo[2,3-b]pyridin-3-ylmethyl)-pyridin-2-yl]-amine]
Clc1ccc(CNc2ccc(Cc3c[nH]c4ncccc34)cn2)c(Cl)c1 [P-0342, (2,4-Dichloro-benzyl)-[5-(1H-pyrrolo[2,3-b]pyridin-3-ylmethyl)-pyridin-2-yl]-amine]
Fc1cccc(CNc2ccc(Cc3c[nH]c4ncccc34)cn2)c1 [P-0343, (3-Fluoro-benzyl)-[5-(1H-pyrrolo[2,3-b]pyridin-3-ylmethyl)-pyridin-2-yl]-amine]
Fc1cc(C(F)(F)F)ccc1CNc1ccc(Cc2c[nH]c3ncccc23)cn1 [P-0344, (2-Fluoro-4-trifluoromethyl-benzyl)-[5-(1H-pyrrolo[2,3-b]pyridin-3-ylmethyl)-pyridin-2-yl]-amine]
Fc1cc(Cl)ccc1CNc1ccc(Cc2c[nH]c3ncccc23)cn1 [P-0345, (4-Chloro-2-fluoro-benzyl)-[5-(1H-pyrrolo[2,3-b]pyridin-3-ylmethyl)-pyridin-2-yl]-amine]
Fc1cc(CNc2ccc(Cc3c[nH]c4ncccc34)cn2)cc(C(F)(F)F)c1 [P-0346, (3-Fluoro-5-trifluoromethyl-benzyl)-[5-(1H-pyrrolo[2,3-b]pyridin-3-ylmethyl)-pyridin-2-yl]-amine]
c1cnc(N2CCOCC2)c(CNc2ccc(Cc3c[nH]c4ncccc34)cn2)c1 [P-0347, (2-Morpholin-4-yl-pyridin-3-ylmethyl)-[5-(1H-pyrrolo[2,3-b]pyridin-3-ylmethyl)-pyridin-2-yl]-amine]
FC(F)(F)c1cc(CNc2ccc(Cc3c[nH]c4ncccc34)cn2)ccc1Cl [P-0348, (4-Chloro-3-trifluoromethyl-benzyl)-[5-(1H-pyrrolo[2,3-b]pyridin-3-ylmethyl)-pyridin-2-yl]-amine]
FC(F)(F)c1ccc(Cl)c(CNc2ccc(Cc3c[nH]c4ncccc34)cn2)c1 [P-0349, (2-Chloro-5-trifluoromethyl-benzyl)-[5-(1H-pyrrolo[2,3-b]pyridin-3-ylmethyl)-pyridin-2-yl]-amine]
Fc1ccc(C(F)(F)F)cc1CNc1ccc(Cc2c[nH]c3ncccc23)cn1 [P-0350, (2-Fluoro-5-trifluoromethyl-benzyl)-[5-(1H-pyrrolo[2,3-b]pyridin-3-ylmethyl)-pyridin-2-yl]-amine]
Clc1cccc(CNc2ccc(Cc3c[nH]c4ncccc34)cn2)c1Cl [P-0351, (2,3-Dichloro-benzyl)-[5-(1H-pyrrolo[2,3-b]pyridin-3-ylmethyl)-pyridin-2-yl]-amine]
COc1cccc(CNc2ccc(Cc3c[nH]c4ncccc34)cn2)c1F [P-0352, (2-Fluoro-3-methoxy-benzyl)-[5-(1H-pyrrolo[2,3-b]pyridin-3-ylmethyl)-pyridin-2-yl]-amine]
CN(C)c1ncc(CNc2ccc(Cc3c[nH]c4ncccc34)cn2)cn1 [P-0353, Dimethyl-(5-{[5-(1H-pyrrolo[2,3-b]pyridin-3-ylmethyl)-pyridin-2-ylamino]-methyl}-pyrimidin-2-yl)-amine]
Fc1c(Cl)cccc1CNc1ccc(Cc2c[nH]c3ncccc23)cn1 [P-0354, (3-Chloro-2-fluoro-benzyl)-[5-(1H-pyrrolo[2,3-b]pyridin-3-ylmethyl)-pyridin-2-yl]-amine]
Fc1ccc(CNc2ccc(Cc3c[nH]c4ncccc34)cn2)nc1 [P-0355, (5-Fluoro-pyridin-2-ylmethyl)-[5-(1H-pyrrolo[2,3-b]pyridin-3-ylmethyl)-pyridin-2-yl]-amine]
Fc1cc(F)cc(CNc2ccc(Cc3c[nH]c4ncccc34)cn2)c1 [P-0356, (3,5-Difluoro-benzyl)-[5-(1H-pyrrolo[2,3-b]pyridin-3-ylmethyl)-pyridin-2-yl]-amine]
CCCOc1ccccc1CNc1ccc(Cc2c[nH]c3ncccc23)cn1 [P-0357, (2-Propoxy-benzyl)-[5-(1H-pyrrolo[2,3-b]pyridin-3-ylmethyl)-pyridin-2-yl]-amine]
c1ccc(N2CCOCC2)c(CNc2ccc(Cc3c[nH]c4ncccc34)cn2)c1 [P-0358, (2-Morpholin-4-yl-benzyl)-[5-(1H-pyrrolo[2,3-b]pyridin-3-ylmethyl)-pyridin-2-yl]-amine]
COc1cccc(CNc2ccc(Cc3c[nH]c4ncccc34)cn2)c1Cl [P-0359, (2-Chloro-3-methoxy-benzyl)-[5-(1H-pyrrolo[2,3-b]pyridin-3-ylmethyl)-pyridin-2-yl]-amine]
Fc1cccc(C(F)(F)F)c1CNc1ccc(Cc2c[nH]c3ncccc23)cn1 [P-0360, (2-Fluoro-6-trifluoromethyl-benzyl)-[5-(1H-pyrrolo[2,3-b]pyridin-3-ylmethyl)-pyridin-2-yl]-amine]
c1ccc(OCCN2CCOCC2)c(CNc2ccc(Cc3c[nH]c4ncccc34)cn2)c1 [P-0361, [2-(2-Morpholin-4-yl-ethoxy)-benzyl]-[5-(1H-pyrrolo[2,3-b]pyridin-3-ylmethyl)-pyridin-2-yl]-amine]
Fc1cccc(CNc2ccc(Cc3c[nH]c4ncccc34)cn2)c1F [P-0362, (2,3-Difluoro-benzyl)-[5-(1H-pyrrolo[2,3-b]pyridin-3-ylmethyl)-pyridin-2-yl]-amine]
FC(F)(F)c1cccc(CNc2ccc(Cc3c[nH]c4ncccc34)cn2)c1Cl [P-0363, (2-Chloro-3-trifluoromethyl-benzyl)-[5-(1H-pyrrolo[2,3-b]pyridin-3-ylmethyl)-pyridin-2-yl]-amine]
Fc1ccc(Cl)c(CNc2ccc(Cc3c[nH]c4ncccc34)cn2)c1 [P-0364, (2-Chloro-5-fluoro-benzyl)-[5-(1H-pyrrolo[2,3-b]pyridin-3-ylmethyl)-pyridin-2-yl]-amine]
Fc1c(CNc2ccc(Cc3c[nH]c4ncccc34)cn2)cccc1C(F)(F)F [P-0365, (2-Fluoro-3-trifluoromethyl-benzyl)-[5-(1H-pyrrolo[2,3-b]pyridin-3-ylmethyl)-pyridin-2-yl]-amine]
